The target in experiment [1] is human MMP-12 (human) (UniProt P39900). The experiment is described as follows: ELISA competition binding assay, FIG. 5. In general terms: ELISA stands for enzyme-linked immunosorbent assay.
The target of experiment [2] is murine MMP-12 (mouse) (UniProt P34960). The experiment in a line: ELISA competition binding assay, FIG. 5.
For experiment [3], the target named is human MMP-12 (human) (UniProt P39900). The experiment is described as follows: MMP-12 activity against antibody concentration, FIGS. 2A-2C.
Experiment [4] concerns the target murine MMP-12 (mouse) (UniProt P34960). Described as above.
Experiment [5] addresses human MMP-12 (human) (UniProt P39900). The experiment in a line: inhibition assays and affinity ranking of affinity matured clones.
The target in experiment [6] is murine MMP-12 (mouse) (UniProt P34960). The experiment is described as above.
The target of experiment [7] is human MMP-12 (human) (UniProt P39900). The experiment is described as follows: human MMP-12 activity against antibody concentration, FIG. 9.

Protein sequences, listed by entry. Tags and fused reporters are not part of them. Lines headed by an entry give the natural chain unless they say otherwise; changes in a name come on top.
UniProt P39900: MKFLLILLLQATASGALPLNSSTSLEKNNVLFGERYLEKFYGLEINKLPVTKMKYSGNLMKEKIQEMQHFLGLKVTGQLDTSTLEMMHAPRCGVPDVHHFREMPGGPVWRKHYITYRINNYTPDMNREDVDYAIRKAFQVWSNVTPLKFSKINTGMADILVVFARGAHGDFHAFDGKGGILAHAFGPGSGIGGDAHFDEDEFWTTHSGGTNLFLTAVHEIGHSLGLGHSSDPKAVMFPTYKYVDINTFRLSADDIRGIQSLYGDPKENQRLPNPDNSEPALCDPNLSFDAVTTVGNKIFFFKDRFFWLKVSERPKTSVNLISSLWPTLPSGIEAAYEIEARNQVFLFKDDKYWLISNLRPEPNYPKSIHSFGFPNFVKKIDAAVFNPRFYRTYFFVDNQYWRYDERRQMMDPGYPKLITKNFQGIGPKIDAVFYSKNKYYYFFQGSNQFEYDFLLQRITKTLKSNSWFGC
UniProt P34960: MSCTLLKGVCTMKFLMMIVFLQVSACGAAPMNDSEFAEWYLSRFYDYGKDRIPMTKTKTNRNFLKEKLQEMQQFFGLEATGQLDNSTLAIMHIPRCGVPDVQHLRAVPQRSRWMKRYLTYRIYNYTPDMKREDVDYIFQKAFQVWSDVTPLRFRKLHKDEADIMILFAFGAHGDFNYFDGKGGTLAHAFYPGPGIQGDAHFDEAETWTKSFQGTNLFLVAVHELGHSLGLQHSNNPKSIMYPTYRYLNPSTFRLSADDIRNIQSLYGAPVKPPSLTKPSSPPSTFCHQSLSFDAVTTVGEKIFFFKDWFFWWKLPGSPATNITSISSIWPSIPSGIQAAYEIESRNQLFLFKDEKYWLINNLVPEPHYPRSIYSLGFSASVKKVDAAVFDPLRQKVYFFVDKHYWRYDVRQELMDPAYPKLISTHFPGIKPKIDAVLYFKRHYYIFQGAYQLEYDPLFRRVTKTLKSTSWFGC

Residue numbers refer to the chain shown, from its start. These are yes or no findings as the source states them, for the method shown. Some entries that bind do so weakly or less than the wild type.

B1: 539B-M0008-H09 (format not stated) (antibody, V domains shown)
VH: EVQLLESGGGLVQPGGSLRLSCAASGFTFSDYNMHWVRQAPGKGLEWVSYIGPSGGYTHYADSVKGRFTISRDNSKNTLYLQMNSLRAEDTAVYYCAKDIRGAYSSGLFDYWGRGTLVTVSS
VL: DIQMTQSPSSLSASVGDRVTITCRANQSIYTYLNWYQQKPGKAPELLIYAASSLQSGVPSRFSGSGSGTDFTLTISSLQPEDFATYYCQQAGIFGQGTKLEIK
On to B1, for which the binding entry in the experiment with human MMP-12 (human) [1], in the experiment with murine MMP-12 (mouse) [2], with human MMP-12 (human) [3] and with murine MMP-12 (mouse) [4] was “binds” in each case.

B2: 539B-M131A06 (antibody, V domains shown)
VH: B1 VH with D31W, N33W, Y50G, G52S, Y57M, H59M, K98R, R101V, A103P, S106A
VL: B1 VL
On to B2, for which the binding result with human MMP-12 (human) [5] and with murine MMP-12 (mouse) [6] was “binds” throughout.

B3: 539B-M131A06-GA-S (antibody, V domains shown)
VH: B1 VH with D31W, N33W, Y50G, G52S, Y57M, H59M, K98R, R101V, A103P, S106A
VL: DIQMTQSPSSLSASVGDRVTITCRASQSIYTYLNWYQQKPGKAPKLLIYAASSLQSGVPSRFSGSGSGTDFTLTISSLQPEDFATYYCQQAGIFGQGTKLEIKR
Take B3: in the experiment with human MMP-12 (human) [7], the binding result is “binds”.

B4: 539A-M0016-A11 IgG (antibody, V domains shown)
VH: EVQLLESGGGLVQPGGSLRLSCAASGFTFSEYQMAWVRQAPGKGLEWVSSIYPSGGHTHYADSVKGRFTISRDNSKNTLYLQMNSLRAEDTAVYYCAKESYYDFWSGYYFDYWGQGTLVTVSS
VL: DIQMTQSPSSLSASVRDRVTITCRTSQNINTYLNWYYQAPGRAPKLLIFGVSSLHRGVSSRFSGSGDGTEFTLTISSLQPEDIGTYFCQQSYSSPWTFGQGTKVEIK
B4: the binding entry with human MMP-12 (human) [1] is listed as “binds”.

B5: 539B-M0011-H11 Fab (Fab, V domains shown)
VH: EVQLLESGGGLVQPGGSLRLSCAASGFTFSWYNMWWVRQAPGKGLEWVSYIYPSGGNTGYADSVKGRFTISRDNSKNTLYLQMNSLRAEDTAVYYCAVFEYSSSGPQGYWGQGTLVTVSS
VL: QSALTQPPSVSVAPGQTARITCGGNNIGTKSVHWYQQKSGQAPVLVVYDNSDRPSGIPERFSGSNSGNTATLTISRVEAGDEADYYCQVWDNSIDHVVFGGGTKLTVL
With B5, the binding result with murine MMP-12 (mouse) [2] is “binds”.

B6: 539A-M0013-G12 IgG (antibody, V domains shown)
VH: EVQLLESGGGLVQPGGSLRLSCAASGFTFSWYHMFWVRQAPGKGLEWVSGISSSGGYTHYADSVKGRFTISRDNSKNTLYLQMNSLRAEDTAVYYCATREGMLYDYVWGENYMDVWGKGTTVTVSS
VL: DIQMTQSPSSLSASVGDRVTITCQASQDTYNRLHWYQQKPGKAPKLLIYDAVNLNRGVPSRFRGSGSGTNYILIITNLQPEDTATYYCQHSDDLSLAFGGGTKVEIK
Take B6: the binding result with human MMP-12 (human) [1] was “binds”.

Source of the values: patent publication US8114968.
